These are yes or no findings as the source states them, for the method shown. In cells and extracts the contact can be indirect. These calls come from enrichment with a bait or labelling near it, and not all partners need be listed.
Target: Myc-tagged USP35 (ubiquitin specific protease 35) (UniProt Q9P2H5)
Assay: affinity purification with mass spectrometry; H1299 cells transfected with Myc-USP35 or empty vector; lysates immunoprecipitated with anti-Myc, SDS-PAGE, Coomassie blue R-250, a specific band excised for mass spectrometry

Protein sequences, listed by entry. Tags and fused reporters are not part of them.
UniProt Q9P2H5: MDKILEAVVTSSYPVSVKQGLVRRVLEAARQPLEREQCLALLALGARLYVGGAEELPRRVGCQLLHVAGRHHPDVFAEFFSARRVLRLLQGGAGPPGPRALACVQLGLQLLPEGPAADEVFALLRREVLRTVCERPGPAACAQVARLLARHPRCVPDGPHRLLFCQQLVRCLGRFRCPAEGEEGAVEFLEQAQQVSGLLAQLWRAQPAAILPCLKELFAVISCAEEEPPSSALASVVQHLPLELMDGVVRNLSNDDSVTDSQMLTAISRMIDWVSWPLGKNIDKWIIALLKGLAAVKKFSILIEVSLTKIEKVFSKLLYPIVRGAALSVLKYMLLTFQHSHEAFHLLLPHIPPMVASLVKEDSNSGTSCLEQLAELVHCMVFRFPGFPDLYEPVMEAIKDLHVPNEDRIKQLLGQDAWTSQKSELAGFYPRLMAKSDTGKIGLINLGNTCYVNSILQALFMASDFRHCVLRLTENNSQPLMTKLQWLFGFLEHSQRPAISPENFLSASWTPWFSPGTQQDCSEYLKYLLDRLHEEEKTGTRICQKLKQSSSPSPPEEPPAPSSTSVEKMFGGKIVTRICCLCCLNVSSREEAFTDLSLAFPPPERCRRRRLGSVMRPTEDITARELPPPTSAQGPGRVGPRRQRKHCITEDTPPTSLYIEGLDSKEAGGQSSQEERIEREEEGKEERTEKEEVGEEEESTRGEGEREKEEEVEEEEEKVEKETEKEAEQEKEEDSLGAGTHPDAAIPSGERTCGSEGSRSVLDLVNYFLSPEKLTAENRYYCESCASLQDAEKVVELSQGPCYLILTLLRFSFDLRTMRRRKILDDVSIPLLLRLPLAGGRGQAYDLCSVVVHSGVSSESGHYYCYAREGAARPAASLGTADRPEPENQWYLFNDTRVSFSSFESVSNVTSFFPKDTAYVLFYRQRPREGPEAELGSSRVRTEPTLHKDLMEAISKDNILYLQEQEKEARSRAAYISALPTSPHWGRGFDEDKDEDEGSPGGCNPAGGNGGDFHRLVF

B1: endogenous ABIN-2 (TNFAIP3 interacting protein 2) (protein, UniProt Q8NFZ5 1-429)
chain: MSRDPGSGGWEEAPRAAAALCTLYHEAGQRLRRLQDQLAARDALIARLRARLAALEGDAAPSLVDALLEQVARFREQLRRQEGGAAEAQMRQEIERLTERLEEKEREMQQLLSQPQHEREKEVVLLRRSMAEGERARAASDVLCRSLANETHQLRRTLTATAHMCQHLAKCLDERQHAQRNVGERSPDQSEHTDGHTSVQSVIEKLQEENRLLKQKVTHVEDLNAKWQRYNASRDEYVRGLHAQLRGLQIPHEPELMRKEISRLNRQLEEKINDCAEVKQELAASRTARDAALERVQMLEQQILAYKDDFMSERADRERAQSRIQELEEKVASLLHQVSWRQDSREPDAGRIHAGSKTAKYLAADALELMVPGGWRPGTGSQQPEPPAEGGHPGAAQRGQGDLQCPHCLQCFSDEQGEELLRHVAECCQ
Which binding does the source give for B1 here?
The binding was “binds”.

Reference: PMC4695033
